Assay [1] has as its target DNA methyltransferase 3B (mouse (endogenous in mouse blastocysts and PGK12.1 ES cells)) (UniProt O88509). The assay can be described thus: co-IP.
The target is the same in assay [2]. The assay can be described thus: proximity ligation.

Protein sequences, listed by entry. Tags and fused reporters are not part of them.
UniProt Q80U70: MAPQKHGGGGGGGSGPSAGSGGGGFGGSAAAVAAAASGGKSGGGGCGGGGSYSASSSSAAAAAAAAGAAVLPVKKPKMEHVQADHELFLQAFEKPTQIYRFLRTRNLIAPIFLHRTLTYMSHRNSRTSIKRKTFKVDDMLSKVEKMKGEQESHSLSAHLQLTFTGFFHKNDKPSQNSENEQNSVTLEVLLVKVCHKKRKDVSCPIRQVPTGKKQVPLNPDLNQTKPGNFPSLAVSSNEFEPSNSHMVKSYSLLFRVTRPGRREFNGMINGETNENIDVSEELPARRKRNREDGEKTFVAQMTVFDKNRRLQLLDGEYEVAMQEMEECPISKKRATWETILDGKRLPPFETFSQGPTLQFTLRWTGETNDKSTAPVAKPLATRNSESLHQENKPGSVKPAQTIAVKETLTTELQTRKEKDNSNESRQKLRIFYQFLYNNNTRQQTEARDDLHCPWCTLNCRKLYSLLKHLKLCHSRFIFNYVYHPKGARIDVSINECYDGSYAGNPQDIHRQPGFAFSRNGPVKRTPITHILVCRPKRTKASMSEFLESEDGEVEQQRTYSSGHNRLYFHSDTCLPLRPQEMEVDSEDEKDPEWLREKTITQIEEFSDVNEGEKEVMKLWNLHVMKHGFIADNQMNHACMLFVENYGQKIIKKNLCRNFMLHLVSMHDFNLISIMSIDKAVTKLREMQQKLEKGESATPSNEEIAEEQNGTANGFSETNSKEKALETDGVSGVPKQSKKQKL
UniProt Q61188: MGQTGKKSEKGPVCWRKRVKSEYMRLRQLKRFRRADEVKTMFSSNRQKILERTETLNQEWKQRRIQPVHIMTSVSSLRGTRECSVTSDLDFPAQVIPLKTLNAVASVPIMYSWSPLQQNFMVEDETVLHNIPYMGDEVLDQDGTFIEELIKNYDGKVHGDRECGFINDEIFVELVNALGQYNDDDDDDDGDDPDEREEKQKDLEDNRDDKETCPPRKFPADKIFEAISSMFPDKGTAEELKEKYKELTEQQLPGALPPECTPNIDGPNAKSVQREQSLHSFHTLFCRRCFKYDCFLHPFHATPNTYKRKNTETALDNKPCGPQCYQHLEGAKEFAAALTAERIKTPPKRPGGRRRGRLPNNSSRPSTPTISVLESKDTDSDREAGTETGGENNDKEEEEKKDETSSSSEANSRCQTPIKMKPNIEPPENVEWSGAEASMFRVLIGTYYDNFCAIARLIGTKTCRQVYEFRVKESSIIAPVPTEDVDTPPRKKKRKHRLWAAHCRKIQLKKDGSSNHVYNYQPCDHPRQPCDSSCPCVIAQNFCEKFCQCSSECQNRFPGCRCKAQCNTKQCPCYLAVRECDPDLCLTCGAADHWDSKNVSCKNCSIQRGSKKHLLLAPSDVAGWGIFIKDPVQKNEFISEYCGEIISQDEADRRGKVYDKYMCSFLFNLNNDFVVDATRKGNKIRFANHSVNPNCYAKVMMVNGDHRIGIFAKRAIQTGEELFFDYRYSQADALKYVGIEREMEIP

This is an account of results in article doi:10.1101/2023.10.06.561284.

Results are given in words; binding and its absence hold for the method and conditions named. Binding seen in cells or lysates may run through a third protein. Some binding calls cover weakened binding; strength is not graded here.

Consider SUZ12 (from UniProt Q80U70 1-741), for which the binding result in assay [1] and in assay [2] was “binds” each time.
As to EED (from UniProt Q921E6 1-441), the binding entry in assay [1] and in assay [2] was “binds” in each case.
For “EZH2 (from UniProt Q61188 1-746) (enzyme)”, the binding result in assay [1] and in assay [2] was “binds” in each case.
